In the assay the target is T1, YFP-TBC1D15 (UniProt Q8TC07).
T1 sequence: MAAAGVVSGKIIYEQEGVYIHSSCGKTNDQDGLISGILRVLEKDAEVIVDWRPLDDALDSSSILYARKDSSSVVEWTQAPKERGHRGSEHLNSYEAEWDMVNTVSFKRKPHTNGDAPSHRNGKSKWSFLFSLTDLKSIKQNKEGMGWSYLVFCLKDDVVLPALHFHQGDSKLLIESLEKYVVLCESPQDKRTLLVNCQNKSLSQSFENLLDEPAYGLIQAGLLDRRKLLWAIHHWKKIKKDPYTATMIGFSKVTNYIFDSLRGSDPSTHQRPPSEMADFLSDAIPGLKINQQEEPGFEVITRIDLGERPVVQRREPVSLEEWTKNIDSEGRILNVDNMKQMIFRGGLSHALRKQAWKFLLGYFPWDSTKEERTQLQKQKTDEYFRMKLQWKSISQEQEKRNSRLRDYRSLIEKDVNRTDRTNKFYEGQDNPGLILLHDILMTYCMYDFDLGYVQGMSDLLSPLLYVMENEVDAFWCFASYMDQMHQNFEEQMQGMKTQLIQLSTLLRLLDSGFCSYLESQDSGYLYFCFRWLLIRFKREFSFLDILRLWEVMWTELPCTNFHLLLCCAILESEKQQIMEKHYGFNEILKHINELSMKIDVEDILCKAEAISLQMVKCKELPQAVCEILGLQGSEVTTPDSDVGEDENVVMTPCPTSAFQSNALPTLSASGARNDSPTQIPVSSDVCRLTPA
Put plainly: co-IP; YFP-TBC1D15 immunoprecipitated with GFP-trap agarose from lysates of HCT116 cells coexpressing FIS1 variants and YFP-TBC1D15, cross-linked with 0.25% PFA; FIS1 blotted; lysis buffer 10 mM Tris/Cl pH 7.5, 150 mM NaCl, 0.5 mM EDTA, 0.5% NP-40 substitute.

Results are given in words; binding and its absence hold for the method and conditions named. In cells and extracts the contact can be indirect. Some entries that bind do so weakly or less than the wild type. Tags and fused reporters may be left off the sequences shown.

B1: Mitochondrial fission protein 1 (FIS1), wildtype, ectopically expressed from pcDNA-FIS1 WT (natural protein, human)
chain: MEAVLNELVSVEDLLKFEKKFQSEKAAGSVSKSTQFEYAWCLVRSKYNDDIRKGIVLLEELLPKGSKEEQRDYVFYLAVGNYRLKEYEKALKYVRGLLQTEPQNNQAKELERLIDKAMKKDGLVGMAIVGGMALGVAGLAGLIGL
notes: human mitochondrial fission protein 1 (FIS1), wildtype, expressed from pcDNA; No tag is mentioned; detected with an anti-FIS1 antibody; also called WT FIS1; source: HCT116, transfected, in lysate (PFA cross-linked cells)
Take B1: the binding result is listed as “binds”.

B2: FIS1 D49G variant (natural protein, human)
chain: MEAVLNELVSVEDLLKFEKKFQSEKAAGSVSKSTQFEYAWCLVRSKYNGDIRKGIVLLEELLPKGSKEEQRDYVFYLAVGNYRLKEYEKALKYVRGLLQTEPQNNQAKELERLIDKAMKKDGLVGMAIVGGMALGVAGLAGLIGL
notes: human FIS1 that keeps the SKY insert, with D49 replaced by Gly, expressed from pcDNA; source: HCT116, transfected, in lysate (PFA cross-linked cells)
On to B2, for which the binding entry is listed as “binds”.

The values above are taken from publication PMC10641528, “A conserved, noncanonical insert in FIS1 mediates TBC1D15 and DRP1 recruitment for mitochondrial fission” (The Journal of Biological Chemistry, 2023).
